The other results are listed elsewhere or left out. Further columns of the screen follow, without active or inactive calls. Compounds called inactive in the main read-out are mostly missing here. The note in brackets gives the kind of curve behind each potency; many fits are weak.

The experiment is described as follows: qHTS Assay for Lipid Storage Modulators in Drosophila S3 Cells.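 On cell number change: cells counted by Cell Tracker Red CMTPX staining in the red channel.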 Particulars: BODIPY lipid droplet fluorescence, 18-24 h; for cell number change: measured here: cell count max response, cells fed with added oleic acid. Put shortly: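 Drosophila S3 cells loaded with oleic acid (400 uM, as added) and compounds at several concentrations; lipid droplets imaged by 488-nm laser-scanning cytometry, 500–530 nm intensity and object ratio to cell channel. Percent activity normalized to 20 uM Triacsin C.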

[1] abbreviates: measured here: lipid fluorescence (Fed channel) AC50, cells fed with added oleic acid.
The mark [2] stands for this setting: measured here: cell number channel AC50, cells fed with added oleic acid.

`COc1ccc(NC(=O)c2ccc3ncsc3c2)c2ccccc12`: the cell number change stood at 16.9%. In addition, the AC50 under setting [1] was 1.64 µM [rising, full curve, poor fit]. Turning to `O=C(Cc1csc(N2CCOCC2)n1)N/N=C/c1ccc(F)cc1`, the cell number change is 42.2%. In addition, the AC50 under setting [2] was 4.61 µM [rising, full curve]. In addition, under setting [1], the AC50 was 2.31 µM [rising, partial curve]. For `CCc1cc(C(=O)c2ccc(OC)cc2)c(NC(=O)CC(C)(C)CC(=O)O)s1`, the cell number change is -21%. Besides, the AC50 under setting [2] was 0.731 µM [falling, full curve, poor fit]. For `Cc1cc(C)nc(N2CCCC(C(=O)NCc3ccccc3F)C2)n1` (configuration not stated), the cell number change came to 10.9%. Further, the AC50 under setting [1] was 2.59 µM [rising, full curve, poor fit]. `COc1ccc(Cc2nnc(NC(=O)Nc3ccccc3F)s2)cc1OC`: the cell number change was -25%. On the same count and under the same terms, under `CCOC(=O)c1cc(C#N)c(SCC(=O)O)[nH]c1=O` stands -97.1%.

As to `CCNC(=O)Nc1cc2nc(C)n(Cc3ccc(Br)cc3)c2nc1C`, the AC50 is, setting by setting: under setting [2], 0.291 µM [rising, partial curve]; under setting [1], 0.164 µM [rising, full curve]. On to `Cc1ccc(-c2nc(=S)c3c(n2Cc2ccco2)CCCC3)cc1`, for which the AC50 under setting [2] was 3.26 µM [rising, single point]. Regarding `Cc1cccc(NC(=O)c2ccccn2)c1C`, the cell number change was determined as 27.1%. The AC50 under setting [2] was 0.184 µM [rising, full curve, poor fit]. Also, the AC50 under setting [1] was 2.06 µM [rising, full curve].

For the compound `Cc1cc(O)ccc1N/C=C1\CCCC1=O`, the cell number change was -10%. In addition, the AC50 under setting [1] is 7.31 µM [rising, single point]. As for `Cn1cc([N+](=O)[O-])c(C(=O)N/N=C/c2ccc3c(c2)OCO3)n1`, the AC50 under setting [2] is 0.0731 µM [falling, single point] and the half-maximal activity concentration (AC50) under setting [1] was 0.146 µM [falling, partial curve, poor fit]. In the case of `CC(C)(C)c1ccc(C(=O)NCCC(=O)NCc2ccco2)cc1`, the cell number change is 9.07%. Also, the AC50 under setting [2] was 6.51 µM [falling, single point].

In the case of `COc1cc(/C=N/NC(=O)C2c3ccccc3Oc3ccccc32)ccc1O`, the cell number change is -45.3%. Further, the concentration at half-maximal activity (AC50) under setting [2] is 0.00461 µM [falling, full curve, poor fit]. Consider `Cc1ccc(NC(=O)Nc2ccc3c(c2)C(=O)OC3)cc1Cl`, for which the cell number change was 15.5%. The AC50 under setting [1] was 1.64 µM [rising, full curve]. Turning to `CC1(C)CC(=O)c2c(n(-c3cccc4ccccc34)ccc2=O)C1`, the cell number change was 2.21%.

On to `CCOC(=O)Cn1c(=O)c(-c2ccccc2NC)nc2ccccc21`, for which the cell number change was -28.4%. Further, the AC50 under setting [2] was 0.517 µM [rising, full curve].

As to `CCOC(=O)C1(Cc2cccc(OC)c2)CCCN(S(=O)(=O)CC)C1` (configuration not stated), the cell number change came to 0.246%. Moreover, the AC50 under setting [1] is 0.58 µM [rising, single point]. For `O=C(c1ccc(Cl)cc1)C(CN1CCCCC1)c1ccccc1` (configuration not stated), the cell number change is -66.2%. In addition, the AC50 under setting [2] was 18.4 µM [falling, single point]. In addition, the AC50 under setting [1] was 29.1 µM [falling, single point].

Take `Cc1cccc2sc(NC(=O)CSc3nc4ccccc4o3)nc12`: the cell number change is -5.86%. Further, the AC50 under setting [2] was 0.116 µM [rising, partial curve]. In addition, the AC50 under setting [1] is 6.51 µM [rising, partial curve, poor fit].

Consider `Cc1ccccc1C(=O)N/N=C1/SCC(=O)N1Cc1ccc2c(c1)OCO2`, for which the cell number change is 3.88%. The AC50 under setting [1] was 0.13 µM [rising, full curve, poor fit].

Turning to `Cc1ccc(S(=O)(=O)N2CCC(C(=O)N/N=C/c3ccccc3[N+](=O)[O-])CC2)cc1`, the cell number change is -9.63%. Also, the AC50 under setting [2] is 0.731 µM [falling, single point]. The AC50 under setting [1] is 0.058 µM [falling, full curve, poor fit]. On to `COC(=O)c1ccc(OCC(=O)c2ccc(C)c(C)c2)cc1`, for which the AC50 under setting [1] is 25.9 µM [rising, partial curve].

Regarding `COc1cccc2cc(C(=O)NCc3ccc(Cl)cc3)c(=N)oc12`, the cell number change came out at 54.4%. Under setting [2], the AC50 is 35.5 µM [rising, single point]. For the same compound, the AC50 under setting [1] is 4.47 µM [rising, partial curve, poor fit].

Consider `CCOC(=O)N1CCN(c2cc(NCCC(=O)O)c3c4c(onc24)-c2ccccc2C3=O)CC1`, for which the cell number change was -271%. Further, the AC50 under setting [2] was 23.1 µM [falling, single point]. For `O=C(c1cccc(F)c1)n1nnc2ccccc21`, the cell number change was -28.6%. The AC50 under setting [2] is 3.66 µM [falling, full curve, poor fit]. The AC50 under setting [1] was 29.1 µM [falling, single point]. For `COc1ccccc1NC(=O)c1[nH]c(C)c(C(C)=O)c1C`, the cell number change was found to be 2.14%. Besides, under setting [1], the half-maximal activity concentration (AC50) is 3.26 µM [falling, full curve, poor fit].

As for `COc1ccc(CNC(=O)CN(c2cc(C)cc(C)c2)S(=O)(=O)c2c(C)noc2C)cc1`, under setting [1], the AC50 is 0.731 µM [rising, full curve, poor fit]. For `O=C(Nc1ccccc1C(=O)NCc1ccccc1)c1ccccc1Br`, the cell number change came to 8.31%. Also, the half-maximal activity concentration (AC50) under setting [2] was 6.51 µM [rising, partial curve, poor fit].

Take `COc1ccccc1OCC(=O)N1CC2(C)CC1CC(C)(C)C2` (configuration not stated): the cell number change was 48.1%. Also, the AC50 under setting [2] was 13 µM [rising, partial curve]. Under setting [1], the half-maximal activity concentration (AC50) is 20.6 µM [rising, partial curve]. As to `CCCNC(=O)c1ccc2c(=O)n3c(-c4ccc(C)cc4)csc3nc2c1`, the cell number change was 12.6%. Besides, the AC50 under setting [1] is 11.6 µM [rising, single point]. `CC1(C)NC(=O)N(CC(=O)N2CCN(S(=O)(=O)c3cc(Cl)ccc3Cl)CC2)C1=O`: the cell number change is -10.7%.

Regarding `O=C(Cn1c(CO)nc2ccccc21)Nc1ccc2c(c1)OCCCO2`, the cell number change was -15.2%. Consider `O=C(NNc1cccc(Cl)n1)c1ccc(Cl)nc1`, for which the cell number change was found to be 4.3%. Moreover, under setting [1], the AC50 was 29.1 µM [rising, single point]. `COc1ccccc1N(CC(=O)N/N=C/c1ccc(SC)cc1)S(C)(=O)=O`: the cell number change came out at 26.5%. Further, the AC50 under setting [1] was 16.4 µM [rising, partial curve].

As to `Cc1ccc(NC(=O)C(=Cc2ccc(C(=O)O)cc2)C(=O)Nc2ccc(C)cc2C)c(C)c1`, the cell number change is -37.1%.

Take `Cc1ccc(NC(=O)CNCc2cccs2)cc1Br`: the cell number change stood at 8.11%.

Consider `CC1N(C(=O)N(C)C)CCN1S(=O)(=O)c1ccccc1` (configuration not stated), for which the cell number change was -12.5%. Same read-out and setting: under `COc1cc2c(cc1OC)CN(C(=O)CCOc1ccccc1)CC2` stands -2.86%. As for `COC(=O)c1ccccc1NC(=O)CSc1ccc(C)cc1`, the cell number change was 19.1%. For the same compound, the AC50 under setting [1] was 7.31 µM [rising, partial curve]. In the case of `COc1ccc2cc(CN(Cc3ccco3)Cc3nnnn3C3CCCCC3)c(=O)[nH]c2c1`, the cell number change is -36.4%. The AC50 under setting [2] is 29.1 µM [falling, single point]. For the same compound, under setting [1], the AC50 is 18.4 µM [falling, single point]. In the case of `CCc1ccc(NC(=O)C2CCCN2S(=O)(=O)c2ccc3c(c2)n(C)c(=O)c(=O)n3C)cc1` (configuration not stated), the cell number change was 11.6%. Also, under setting [1], the concentration at half-maximal activity (AC50) was 20.6 µM [rising, partial curve, poor fit].

For the compound `CN1/C(=C\C=C(C#N)C#N)C(C)(C)c2ccccc21`, the cell number change is -6.85%. Moreover, the AC50 under setting [1] was 18.4 µM [falling, single point]. Turning to `COc1ccc(CNC(=O)c2cccc(S(=O)(=O)N3CCCCC3)c2)cc1OC`, the cell number change was -39.5%. Besides, the AC50 under setting [2] is 16.4 µM [falling, partial curve]. Regarding `CCOC(=O)C/C(C)=N/NC(=O)c1cccs1`, the cell number change was 6.75%. The AC50 under setting [1] was 0.092 µM [falling, full curve, poor fit]. `CCN1CCc2c(sc(NC(=O)Cc3ccccc3)c2C(=O)OC)C1`: the cell number change was -5.48%. Further, the AC50 under setting [1] is 6.51 µM [rising, single point]. Turning to `COc1cccc(C(=O)/C=C2\NCCc3cc(OC)c(OC)cc32)c1`, the cell number change worked out at 4.5%. In the case of `CC1CN(C(=O)COc2ncnc3ccccc23)CC(C)O1` (configuration not stated), the cell number change is 155%. The concentration at half-maximal activity (AC50) under setting [2] is 29.1 µM [rising, single point]. Under setting [1], the AC50 is 29.1 µM [rising, single point]. In the case of `COc1cc(S(=O)(=O)NCc2ccncc2)c(OC)cc1Br`, the half-maximal activity concentration (AC50) under setting [1] is 18.4 µM [falling, partial curve]. With `O=C(CN1C(=O)NC2NC(=O)NC21)N/N=C/c1ccccc1F` (configuration not stated), the cell number change was -49.8%. For the same compound, the AC50 under setting [2] was 20.6 µM [falling, partial curve]. Moreover, the AC50 under setting [1] is 29.1 µM [falling, single point].

For the compound `CCCn1c2ccccc2c2nnc(SCC(=O)OCC)nc21`, the cell number change is -19.1%. The AC50 under setting [1] was 29.1 µM [rising, single point]. For `COc1cc(CN2CCN(C(=O)c3cccc4ccccc34)CC2)cc(OC)c1OC`, the cell number change came to 16.9%. Moreover, under setting [1], the AC50 was 32.6 µM [rising, single point]. Turning to `Nc1sc2c(c1C(=O)NC1CCS(=O)(=O)C1)CCCC2` (configuration not stated), the cell number change was found to be 12%.

Turning to `O=C1CCC(=O)N1c1ccc(S(=O)(=O)Nc2cccc([N+](=O)[O-])c2)cc1`, the cell number change was determined as 2.76%. Also, the AC50 under setting [1] is 29.1 µM [rising, single point]. Regarding `C[C@@H](C(=O)Nc1ccc2ccccc2c1)[C@H]1C[C@]1(C)[C@H](NC(=O)c1cnccn1)c1ccccc1`, the cell number change was determined as 5.19%. Also, the AC50 under setting [1] is 2.91 µM [rising, full curve, poor fit]. For the compound `Cc1cccc(OCC(=O)Nc2cc(Cl)ccc2-n2cncn2)c1C`, under setting [2], the AC50 was 1.03 µM [rising, partial curve]. In the case of `c1ccc(-c2nc(NCc3cccs3)c3ccccc3n2)cc1`, the cell number change stood at 23%. Under setting [1], the AC50 was 29.1 µM [rising, single point].

`Cc1ccc(S(=O)(=O)N2CCOCC2)cc1C(=O)N1CCOCC1`: the cell number change came to 2.66%. For the same compound, the AC50 under setting [1] was 0.103 µM [rising, full curve, poor fit]. For the compound `CC(NC(=O)c1ccc(C(=O)c2ccccc2)cc1)c1ccc(S(N)(=O)=O)cc1` (configuration not stated), the cell number change came out at 4.91%. Also, under setting [1], the AC50 was 0.366 µM [falling, partial curve, poor fit]. In the case of `COc1ccc(C2C(C)C3(O)CC(C#N)(C(=O)N3)C2(C#N)C#N)cc1` (configuration not stated), the cell number change was -41.1%. The AC50 under setting [2] was 29.1 µM [falling, single point].

`N#Cc1nc(COc2ccc(Br)cc2)oc1N1CCCC1`: the cell number change is -20.7%. Further, under setting [1], the AC50 is 0.651 µM [rising, single point]. `O=C(CCNS(=O)(=O)c1ccc(Br)s1)NCc1ccccc1Cl`: the cell number change was -16.6%. Moreover, the AC50 under setting [1] is 0.82 µM [falling, full curve, poor fit].

For the origin of these results see PubChem BioAssay AID2685 (National Center for Advancing Translational Sciences (NCATS), 2010).
